# Taken from: PubChem BioAssay AID1053208 (Peter MacCallum Cancer Centre, 2014)
# Assay: 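Genes whose silencing cuts survival of bone tumour cells only with doxorubicin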 (primary screen)
# System: mouse osteosarcoma cells, early-passage culture from an engineered mouse model of fibroblastic bone tumour
# Reagents: siRNA pool against mouse genes, 40 nM
# Time to read-out: about 120 h (48 h before drug, then 72 h with drug)
# Treatment: doxorubicin 100 nM for 72 h, roughly 30-40% inhibitory dose
# Detection: 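Luminescent ATP signal taken as viability with or without 100 nM doxorubicin for 72 h; mean of two wells set against non-targeting siRNA and turned into robust z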
# Scale: viability z-score with doxorubicin: higher = more viable cells under doxorubicin; viability z-score without drug: higher = more viable cells with knock-down alone
# Hit rule: 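Called active if knock-down leaves viability unchanged without drug (z within -2 to 2) but lowers it with doxorubicin (z at or under -2)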
# Here is an unselected part of about 17,000 deposited reagents. 788 of all reagents (4.7%) count as active. 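Calls rest on z-score classes alone; an extra cut-off of viability at most 70% of control was not applied to them.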 The numbers tell different reagents against one gene apart. Further read-outs or replicates are left out here. No sequences are given here.
Gene,reagent,combined z-score class,viability z-score with doxorubicin,viability z-score without drug,activity call
Apaf1,1,no change with or without drug,-0.45,-0.17,inactive
Ccng1,1,no change with or without drug,0.9,0.34,inactive
Recql,1,no change with or without drug,0,-0.17,inactive
Mrpl17,1,no change with or without drug,0.56,-1.18,inactive
Klrg1,1,no change with or without drug,0,-0.17,inactive
Rap1gap,1,no change with or without drug,0.34,0.51,inactive
Gja5,1,no change with or without drug,0.22,0.17,inactive
Nkd2,1,no change with or without drug,1.12,0.34,inactive
Ddx41,1,no change with or without drug,0.22,-1.18,inactive
Chtf8,1,no change with or without drug,-0.45,0.34,inactive
Acbd3,1,no change with or without drug,0.67,0.34,inactive
Alpk2,1,no change with or without drug,1.8,1.18,inactive
Camk2a,1,no change with or without drug,0,-0.51,inactive
Atp2b2,1,no change with or without drug,0.34,-1.18,inactive
Il18bp,1,no change with or without drug,-0.9,-1.69,inactive
Mutyh,1,high cell count with doxorubicin only,2.14,0.84,inactive
Dek,1,no change with or without drug,0.9,-0.51,inactive
Tmem54,1,high cell count with and without drug,2.14,2.36,inactive
Ddb2,1,no change with or without drug,1.24,-0.17,inactive
Tafa5,1,no change with or without drug,-0.45,-0.17,inactive
Copb1,1,low cell count with and without drug,-6.97,-6.58,inactive
Rin3,1,no change with or without drug,-0.22,-0.17,inactive
Or5b3,1,no change with or without drug,-0.11,-0.51,inactive
Dars1,1,no change with or without drug,-1.12,-1.85,inactive
Ms4a8a,1,no change with or without drug,0.22,-1.69,inactive

5 of these entries, reformatted:
Gene	reagent	combined z-score class	viability z-score with doxorubicin	viability z-score without drug	activity call
Atp2b2	1	no change with or without drug	0.34	-1.18	inactive
Il18bp	1	no change with or without drug	-0.9	-1.69	inactive
Mutyh	1	high cell count with doxorubicin only	2.14	0.84	inactive
Dek	1	no change with or without drug	0.9	-0.51	inactive
Tmem54	1	high cell count with and without drug	2.14	2.36	inactive

Next records:
Gene,reagent,combined z-score class,viability z-score with doxorubicin,viability z-score without drug,activity call
Acoxl,1,no change with or without drug,-0.22,0.84,inactive
Sinhcaf,1,no change with or without drug,0,-0.17,inactive
Eno2,1,low cell count with doxorubicin only,-2.81,-1.52,active
Mvb12b,1,no change with or without drug,0.56,-0.51,inactive
Exoc3l2,1,no change with or without drug,1.57,1.52,inactive
Angpt1,1,no change with or without drug,-1.12,-1.18,inactive
Slc25a20,1,no change with or without drug,0.56,0.51,inactive
Elof1,1,high cell count with doxorubicin only,2.36,1.01,inactive
Csf2rb,1,no change with or without drug,1.35,1.52,inactive
Acad8,1,no change with or without drug,-1.12,-1.18,inactive
R3hdm4,1,no change with or without drug,-0.45,0.17,inactive
Cyp26b1,1,no change with or without drug,1.12,-0.51,inactive
Xrcc4,1,no change with or without drug,-0.11,0.34,inactive
Prkcsh,1,no change with or without drug,-0.22,0.17,inactive
Anp32a,1,no change with or without drug,0,-0.51,inactive
Uros,1,no change with or without drug,0.67,-1.18,inactive
Etl4,1,no change with or without drug,0.34,0.84,inactive
Klf15,1,no change with or without drug,0.34,0.67,inactive
Il12a,1,no change with or without drug,1.35,0.84,inactive
Tnks,1,no change with or without drug,-1.8,-0.17,inactive
Tnks,2,no change with or without drug,0.9,0.34,inactive
Or1e35,1,no change with or without drug,-0.79,1.18,inactive
5031434C07Rik,1,no change with or without drug,-0.22,1.85,inactive
Psmd5,1,no change with or without drug,0.9,0.17,inactive
E2f4,1,high cell count without drug only,1.12,2.19,inactive
